This note sets out measurements from patent publication US20230330093A1, “APPLICATION OF NITROGEN-CONTAINING SATURATED HETEROCYCLIC COMPOUND” (SHANGHAI PHARMACEUTICALS HOLDING CO., LTD., priority 2020, published 2023).

The series has as its system rhesus monkeys with spontaneous chronic kidney disease (CKD). Briefly: Effect on UACR (proteinuria), 8-week oral administration. It is filed as in vivo, Macaca mulatta (Rhesus Macaque). As to conditions: per animal + Mean ± SD. The procedure: CKD-EPI rating […]-G3b, glomerular filtration rate eGFR: 30 59 ml/min/1.73 m^2; or moderate to severe increase in proteinuria (A2-A3): urine albumin/creatinine ratio (UACR)>15 mg/g-350 mg/g (4-6 hour urine collection), vs. age-matched control group 3±2 mg/g. In the trial, animals were brought in three stages. […] ELISA kit was used for NT-proBNP test. [table]

[1] abbreviates: Valsartan group 2.67 mg/kg/time oral, 8 weeks.
[2] abbreviates: 1 mg/kg oral once a day, 4 weeks.
Where [3] appears, read: 1 mg/kg oral once a day, 8 weeks.
Where [4] appears, read: 2 mg/kg oral once a day, 4 weeks.
The mark [5] stands for this setting: 2 mg/kg oral once a day, 8 weeks.
Setting [6] is: 5 mg/kg oral once a day, 8 weeks.

The structures appear in SMILES notation. “And” between values parts separate entries of the source, which are not always exact repeats. Equal values may be shown once.

As to `CCCCC(=O)N(Cc1ccc(-c2ccccc2-c2nnn[nH]2)cc1)[C@H](C(=O)O)C(C)C` [Valsartan, reference compound], under setting [1], the Cr-U is 28.20 mg/dL and 206.27 mg/dL and 95.47 mg/dL and 109.98 ± 89.92 mg/dL; the Urine-Vol was 240 mL and 80 mL and 37 mL and 119 ± 107 mL.
On to `COC(=O)NCCCn1nc([C@@H](C)N(C(=O)[C@H]2CNCCO2)C2CC2)c2ccc(C)nc21.O=C(O)C[C@H](O)C(=O)O` [malate of compound of Formula I], for which the Cr-U by setting is: under setting [2], 30.74 mg/dL and 121.39 mg/dL and 19.36 mg/dL and 108.29 mg/dL and 16.09 mg/dL and 59.17 ± 51.32 mg/dL; under setting [3], 26.02 mg/dL and 118.23 mg/dL and 25.52 mg/dL and 290.17 mg/dL and 17.93 mg/dL and 95.57 mg/dL; under setting [4], 32.18 mg/dL and 157.85 mg/dL and 41.80 mg/dL and 111.58 mg/dL and 66.89 mg/dL and 82.06 ± 52.33 mg/dL; under setting [5], 53.10 mg/dL and 33.60 mg/dL and 26.33 mg/dL and 116.29 mg/dL and 32.22 mg/dL and 52.31 mg/dL; under setting [6], 52.32 mg/dL and 21.19 mg/dL and 37.25 mg/dL and 128.11 mg/dL and 16.98 mg/dL and 61.60 mg/dL and 52.91 ± 40.68 mg/dL. Further, the Urine-Vol is, setting by setting: under setting [2], 170 mL and 5 mL and 380 mL and 310 mL and 470 mL and 273 mL; under setting [3], 375 ml and 25 ml (2×) and 470 ml and 520 ml and 283 ml; under setting [4], 330 mL and 20 mL and 320 mL and 60 mL and 85 mL and 163 mL; under setting [5], 77 mL and 260 mL and 420 mL and 60 mL and 265 mL and 216 mL; under setting [6], 60 mL and 400 mL and 90 mL and 25 mL and 380 mL and 115 mL and 178 ± 167 mL.
